Measurements from US20160311880A1.
These are yes or no findings as the source states them, for the method shown. A result given as binding can be weak or reduced; the word gives no strength.

Legend:
[1] = target: zebrafish aplnrb (zebrafish); assay: AP-ELA cell-surface binding to transfected HEK293T cells
[2] = target: zebrafish aplnrb (zebrafish); assay: AP-ELA cell-surface binding to transfected 293T cells (FIG. 7H)
[3] = target: zebrafish aplnrb (zebrafish); assay: AP-ELA cell-surface binding to transfected 293T cells (FIG. 7G)

binding [1]: binds
binding [2]: binds
binding [3]: binds
Binder: QRPVNLTMRRKLRKHNCLQRRCMPLHSRVPFP (peptide, not shown: large carriers) [recombinant ELA conjugated to Alkaline-Phosphatase (AP-ELA)]
